Common to all, as to experiment: glycan array binding signal (z-score within array); higher = stronger binding
Settings in all cases: glycan notation: IUPAC condensed, linker removed

Assay [1] addresses Gal(b1-4)GlcNAc(b1-3)Gal(b1-4)GlcNAc(b1-2)Man(a1-3)[Gal(b1-4)GlcNAc(b1-3)Gal(b1-4)GlcNAc(b1-2)Man(a1-6)]Man(b1-4)GlcNAc(b1-4)[Fuc(a1-6)]GlcNAc. The gist of the method:
(§1)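 The binding signal is a Z-score computed within each array and averaged over linkers. Arrays of the same protein sequence at different concentrations or buffers were also averaged together. Data originate from 3228 arrays in the Consortium for Functional Glycomics database, kept only where the protein sequence was available.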

Assay [2] addresses Gal(b1-4)GlcNAc(b1-3)Gal(b1-4)GlcNAc(b1-2)[Gal(b1-4)GlcNAc(b1-3)Gal(b1-4)GlcNAc(b1-6)]Man(a1-6)[Gal(b1-4)GlcNAc(b1-3)Gal(b1-4)GlcNAc(b1-2)Man(a1-3)]Man(b1-4)GlcNAc(b1-4)GlcNAc. An outline of the steps: as §1
Assay [3] has as its target Gal(b1-4)GlcNAc(b1-3)Gal(b1-4)GlcNAc(b1-2)[Gal(b1-4)GlcNAc(b1-3)Gal(b1-4)GlcNAc(b1-6)]Man(a1-6)[Gal(b1-4)GlcNAc(b1-3)Gal(b1-4)GlcNAc(b1-2)Man(a1-3)]Man(b1-4)GlcNAc(b1-4)[Fuc(a1-6)]GlcNAc. The gist of the method:
as §1

Assay [4] has as its target Gal(b1-4)GlcNAc(b1-3)Gal(b1-4)GlcNAc(b1-3)Gal(b1-4)GlcNAc. An outline of the steps:
as §1

Assay [5] concerns the target Gal(b1-4)GlcNAc(b1-3)Gal(b1-4)GlcNAc(b1-3)Gal(b1-4)GlcNAc(b1-2)Man(a1-3)[Gal(b1-4)GlcNAc(b1-3)Gal(b1-4)GlcNAc(b1-3)Gal(b1-4)GlcNAc(b1-2)Man(a1-6)]Man(b1-4)GlcNAc(b1-4)GlcNAc. The gist of the method:
as §1

Assay [6] has as its target Gal(b1-4)GlcNAc(b1-3)Gal(b1-4)GlcNAc(b1-3)Gal(b1-4)GlcNAc(b1-2)Man(a1-3)[Gal(b1-4)GlcNAc(b1-3)Gal(b1-4)GlcNAc(b1-3)Gal(b1-4)GlcNAc(b1-2)Man(a1-6)]Man(b1-4)GlcNAc(b1-4)[Fuc(a1-6)]GlcNAc. The gist of the method: as §1
Assay [7] concerns the target Gal(b1-4)GlcNAc(b1-3)Gal(b1-4)GlcNAc(b1-3)Gal(b1-4)GlcNAc(b1-2)[Gal(b1-4)GlcNAc(b1-3)Gal(b1-4)GlcNAc(b1-3)Gal(b1-4)GlcNAc(b1-6)]Man(a1-6)[Gal(b1-4)GlcNAc(b1-3)Gal(b1-4)GlcNAc(b1-3)Gal(b1-4)GlcNAc(b1-2)Man(a1-3)]Man(b1-4)GlcNAc(b1-4)[Fuc(a1-6)]GlcNAc. An outline of the steps:
as §1

Assay [8] has as its target Gal(b1-4)GlcNAc(b1-3)Gal(b1-4)GlcNAc(b1-3)Gal(b1-4)GlcNAc(b1-3)Gal(b1-4)GlcNAc(b1-2)Man(a1-3)[Gal(b1-4)GlcNAc(b1-3)Gal(b1-4)GlcNAc(b1-3)Gal(b1-4)GlcNAc(b1-3)Gal(b1-4)GlcNAc(b1-2)Man(a1-6)]Man(b1-4)GlcNAc(b1-4)GlcNAc. The gist of the method: as §1
The target in assay [9] is Gal(b1-4)GlcNAc(b1-3)Gal(b1-4)GlcNAc(b1-3)Gal(b1-4)GlcNAc(b1-3)Gal(b1-4)GlcNAc(b1-2)Man(a1-3)[Gal(b1-4)GlcNAc(b1-3)Gal(b1-4)GlcNAc(b1-3)Gal(b1-4)GlcNAc(b1-3)Gal(b1-4)GlcNAc(b1-2)Man(a1-6)]Man(b1-4)GlcNAc(b1-4)[Fuc(a1-6)]GlcNAc. An outline of the steps:
as §1

The target in assay [10] is Gal(b1-4)GlcNAc(b1-3)Gal(b1-4)GlcNAc(b1-3)Gal(b1-4)GlcNAc(b1-3)Gal(b1-4)GlcNAc(b1-2)[Gal(b1-4)GlcNAc(b1-3)Gal(b1-4)GlcNAc(b1-3)Gal(b1-4)GlcNAc(b1-3)Gal(b1-4)GlcNAc(b1-6)]Man(a1-6)[Gal(b1-4)GlcNAc(b1-3)Gal(b1-4)GlcNAc(b1-3)Gal(b1-4)GlcNAc(b1-3)Gal(b1-4)GlcNAc(b1-2)Man(a1-3)]Man(b1-4)GlcNAc(b1-4)[Fuc(a1-6)]GlcNAc. The gist of the method: as §1
Assay [11] deals with Gal(b1-4)GlcNAc(b1-3)Gal(b1-4)GlcNAc(b1-3)Gal(b1-4)GlcNAc(b1-3)Gal(b1-4)GlcNAc(b1-3)Gal(b1-4)GlcNAc(b1-2)Man(a1-3)[Gal(b1-4)GlcNAc(b1-3)Gal(b1-4)GlcNAc(b1-3)Gal(b1-4)GlcNAc(b1-3)Gal(b1-4)GlcNAc(b1-3)Gal(b1-4)GlcNAc(b1-2)Man(a1-6)]Man(b1-4)GlcNAc(b1-4)GlcNAc. The gist of the method:
as §1

In assay [12] the target is Gal(b1-4)GlcNAc(b1-3)Gal(b1-4)GlcNAc(b1-3)Gal(b1-4)GlcNAc(b1-3)Gal(b1-4)GlcNAc(b1-3)Gal(b1-4)GlcNAc(b1-2)Man(a1-3)[Gal(b1-4)GlcNAc(b1-3)Gal(b1-4)GlcNAc(b1-3)Gal(b1-4)GlcNAc(b1-3)Gal(b1-4)GlcNAc(b1-3)Gal(b1-4)GlcNAc(b1-2)Man(a1-6)]Man(b1-4)GlcNAc(b1-4)[Fuc(a1-6)]GlcNAc. An outline of the steps:
as §1

Assay [13] has as its target Gal(b1-4)GlcNAc(b1-3)Gal(b1-4)GlcNAc(b1-3)Gal(b1-4)GlcNAc(b1-3)Gal(b1-4)GlcNAc(b1-3)Gal(b1-4)GlcNAc(b1-2)[Gal(b1-4)GlcNAc(b1-3)Gal(b1-4)GlcNAc(b1-3)Gal(b1-4)GlcNAc(b1-3)Gal(b1-4)GlcNAc(b1-3)Gal(b1-4)GlcNAc(b1-6)]Man(a1-6)[Gal(b1-4)GlcNAc(b1-3)Gal(b1-4)GlcNAc(b1-3)Gal(b1-4)GlcNAc(b1-3)Gal(b1-4)GlcNAc(b1-3)Gal(b1-4)GlcNAc(b1-2)Man(a1-3)]Man(b1-4)GlcNAc(b1-4)[Fuc(a1-6)]GlcNAc. An outline of the steps:
as §1

In assay [14] the target is Gal(b1-4)GlcNAc(b1-3)Gal(b1-4)GlcNAc(b1-3)Gal(b1-4)GlcNAc(b1-3)Gal(b1-4)GlcNAc(b1-3)Gal(b1-4)GlcNAc(b1-3)Gal(b1-4)GlcNAc(b1-2)Man(a1-3)[Gal(b1-4)GlcNAc(b1-3)Gal(b1-4)GlcNAc(b1-3)Gal(b1-4)GlcNAc(b1-3)Gal(b1-4)GlcNAc(b1-3)Gal(b1-4)GlcNAc(b1-3)Gal(b1-4)GlcNAc(b1-2)Man(a1-6)]Man(b1-4)GlcNAc(b1-4)GlcNAc. An outline of the steps:
as §1

The target in assay [15] is Gal(b1-4)GlcNAc(b1-3)Gal(b1-4)GlcNAc(b1-3)GalNAc. The gist of the method:
as §1

Assay [16] concerns the target Gal(b1-4)GlcNAc(b1-3)Gal(b1-4)GlcNAc(b1-3)[Gal(b1-4)GlcNAc(b1-3)Gal(b1-4)GlcNAc(b1-6)]GalNAc. An outline of the steps:
as §1

The target in assay [17] is Gal(b1-4)GlcNAc(b1-3)Gal(b1-4)GlcNAc(b1-6)[Gal(b1-3)]GalNAc. An outline of the steps:
as §1

The target in assay [18] is Gal(b1-4)GlcNAc(b1-3)Gal(b1-4)[Fuc(a1-3)]GlcNAc(b1-3)Gal(b1-4)[Fuc(a1-3)]GlcNAc. The gist of the method: as §1

Data on one molecule can be found in the supplement of paper PMC8728848.

Some of the results follow.

B1: AT1G77380(17) (Arabidopsis thaliana), Q39134 (protein)
chain: MVQNHQTVLAVDMPQTGGSKYLDDDGKNKRTGSVWTASAHIITAVIGSGVLSLAWATAQLGWLAGPVVMLLFSAVTYFTSSLLAACYRSGDPISGKRNYTYMDAVRSNLGGVKVTLCGIVQYLNIFGVAIGYTIASAISMMAIKRSNCFHKSGGKDPCHMNSNPYMIAFGLVQILFSQIPDFDQLWWLSILAAVMSFTYSSAGLALGIAQVVVNGKVKGSLTGISIGAVTETQKIWRTFQALGDIAFAYSYSIILIEIQDTVKSPPSEEKTMKKATLVSVSVTTMFYMLCGCMGYAAFGDLSPGNLLTGFGFYNPYWLLDIANAAIVIHLIGAYQVYCQPLFAFIEKQASIQFPDSEFIAKDIKIPIPGFKPLRLNVFRLIWRTVFVIITTVISMLLPFFNDVVGLLGALGFWPLTVYFPVEMYIAQKKIPRWSTRWVCLQVFSLGCLVVSIAAAAGSIAGVLLDLKSYKPFRSEY
B1: the “glycan array binding signal (z-score)” value is 0.963 in [1]; 1.81 in [2]; -0.372 in [3]; -0.646 in assay [4]; -0.605 in assay [5]; -0.417 in assay [6]. The “glycan array binding signal (z-score)” value in [7] was -0.799; in assay [8], -0.631; in assay [9] it was -0.033; in assay [10], -0.813; in assay [11] it was -0.618; in assay [12], -0.495. Also, the “glycan array binding signal (z-score)” value in [13] is -0.494; in assay [14] it was -0.632; in assay [15] it was -1.04; in assay [16], -0.589; in assay [17], -0.334; in [18], 0.614.
